These are yes or no findings as the source states them, for the method shown. Some results given as binding are weak or reduced against the parent protein; the word gives no strength. For part of these data: Tags and fused reporters may be left off the sequences shown.
Legend:
Assay in all cases: two-hybrid; Bacterial adenylate cyclase (T25/T18) complementation in E. coli cya BTH101; blue colonies on LB-agar with X-gal and IPTG; more stringent: growth and blue colour on M63B1-agar with 0.4% maltose
[1] = target: T1, BcsF (two-hybrid fusion) (E. coli 1094) (UniProt P0ADJ5)
T1 sequence: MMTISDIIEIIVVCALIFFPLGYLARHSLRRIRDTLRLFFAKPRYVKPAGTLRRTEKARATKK

Protein sequences, listed by entry. Tags and fused reporters are not part of them.
UniProt P37657: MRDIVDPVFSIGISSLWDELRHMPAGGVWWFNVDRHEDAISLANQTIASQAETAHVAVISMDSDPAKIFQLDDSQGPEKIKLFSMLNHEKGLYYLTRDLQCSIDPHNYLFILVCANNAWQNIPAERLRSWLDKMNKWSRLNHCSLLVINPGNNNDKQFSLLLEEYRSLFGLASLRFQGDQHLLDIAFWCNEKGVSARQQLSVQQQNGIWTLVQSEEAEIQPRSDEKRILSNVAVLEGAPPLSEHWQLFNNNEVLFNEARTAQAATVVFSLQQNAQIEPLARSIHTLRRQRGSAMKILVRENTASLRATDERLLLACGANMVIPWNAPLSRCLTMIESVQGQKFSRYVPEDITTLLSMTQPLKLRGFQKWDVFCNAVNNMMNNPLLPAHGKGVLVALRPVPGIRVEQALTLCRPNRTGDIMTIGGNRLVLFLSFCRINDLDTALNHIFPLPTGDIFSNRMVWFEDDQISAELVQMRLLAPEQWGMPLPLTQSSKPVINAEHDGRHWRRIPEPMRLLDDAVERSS

[2] = target: BcsE (two-hybrid fusion) (E. coli 1094) (UniProt P37657)
[3] = target: T2, BcsA^PilZ (two-hybrid fusion) (E. coli 1094) (UniProt P37653)
T2 sequence: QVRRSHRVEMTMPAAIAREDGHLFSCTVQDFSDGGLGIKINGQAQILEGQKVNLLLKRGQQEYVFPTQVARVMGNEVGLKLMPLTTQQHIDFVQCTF

- binding [1]: binds
- binding [2]: binds
- binding [3]: binds
Substance: BcsE (two-hybrid fusion) (from UniProt P37657 1-523)

Source: article PMC5727187
